Results are given in words; binding and its absence hold for the method and conditions named. Some entries that bind do so weakly or less than the wild type.
T1: PIH1D2(231-315) (UniProt Q8WWB5)
T1 sequence: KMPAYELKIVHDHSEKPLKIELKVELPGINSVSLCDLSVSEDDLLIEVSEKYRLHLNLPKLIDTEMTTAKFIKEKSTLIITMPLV

The chains behind the UniProt entries cited, without tags or fusion partners. Where a name states a change or a piece, a line headed by the entry shows the natural chain unless it says otherwise. A line that says so, or that is headed by a name, gives the form on record, which may keep a tag or linker.
RuvBL2ΔE134-E237 (Q9Y230, form named): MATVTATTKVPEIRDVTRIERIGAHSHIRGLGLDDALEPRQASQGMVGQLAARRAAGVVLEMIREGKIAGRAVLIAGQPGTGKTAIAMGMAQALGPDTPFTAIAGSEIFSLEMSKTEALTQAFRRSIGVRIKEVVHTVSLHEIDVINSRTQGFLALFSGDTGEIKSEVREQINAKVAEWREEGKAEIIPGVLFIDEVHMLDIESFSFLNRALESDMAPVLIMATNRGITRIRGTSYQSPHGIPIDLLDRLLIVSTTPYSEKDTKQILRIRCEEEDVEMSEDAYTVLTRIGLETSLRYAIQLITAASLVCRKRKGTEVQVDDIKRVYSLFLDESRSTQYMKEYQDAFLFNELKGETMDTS
RuvBL1ΔT127-E233 (Q9Y265, form named): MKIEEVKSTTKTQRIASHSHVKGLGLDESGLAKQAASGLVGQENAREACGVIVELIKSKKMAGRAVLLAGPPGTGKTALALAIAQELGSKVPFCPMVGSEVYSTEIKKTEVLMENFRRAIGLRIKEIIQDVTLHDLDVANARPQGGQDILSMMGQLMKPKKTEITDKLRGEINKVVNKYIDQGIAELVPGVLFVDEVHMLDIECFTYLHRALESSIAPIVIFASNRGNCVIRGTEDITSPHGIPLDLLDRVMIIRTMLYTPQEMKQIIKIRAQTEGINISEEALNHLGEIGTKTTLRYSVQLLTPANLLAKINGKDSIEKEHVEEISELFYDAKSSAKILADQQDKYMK


Key:
[1] = molecular target: T1, PIH1D2(231-315); experiment: SEC; co-expressed in E. coli; StrepTactin XT (eluted with 50 mM biotin), then Superdex 200 16/60 in 20 mM Hepes pH 8, 300 mM NaCl, 0.5 mM TCEP
[2] = molecular target: RuvBL2ΔE134-E237 (UniProt Q9Y230); experiment: cross-linking; XL-MS: R2SP with 25, 100, 400 molar excesses of DSBU (45 min, 18 °C), triplicates, Trypsin/Lys-C digestion, nanoLC-MS/MS, XlinkX; cross-links kept if in 2 of 3 replicates; both purified
[3] = molecular target: RuvBL1ΔT127-E233 (UniProt Q9Y265); experiment: as above
[4] = molecular target: RuvBL1ΔT127-E233-RuvBL2ΔE134-E237 complex (UniProt Q9Y265); experiment: cross-linking; R2SP at 1 mg/mL in 20 mM Hepes, 150 mM NaCl, pH 8 with DSSO or DSBU at 25 to 400 molar excess, 45 min at room temperature; read by denaturing mass photometry; both purified
[5] = molecular target: RuvBL1ΔT127-E233-RuvBL2ΔE134-E237 complex (UniProt Q9Y265); experiment: SEC; pure R1R2 mixed with excess pure SPAG1/PIH1D2 at 1:4 over night at 4 °C; Superose 6 16/60 in 20 mM Hepes pH 8, 150 mM NaCl, 2 mM MgCl2, 0.5 mM TCEP; both purified

Row | binding [1] | binding [2] | binding [3] | binding [4] | binding [5] | Binder
1 | binds | binds | binds | – | – | SPAG1(622-926) (domain or fragment, UniProt Q07617 622-926) TFKALKEEGNQCVNDKNYKDALSKYSECLKINNKECAIYTNRALCYLKLCQFEEAKQDCDQALQLADGNVKAFYRRALAHKGLKNYQKSLIDLNKVILLDPSIIEAKMELEEVTRLLNLKDKTAPFNKEKERRKIEIQEVNEGKEEPGRPAGEVSMGCLASEKGGKSSRSPEDPEKLPIAKPNNAYEFGQIINALSTRKDKEACAHLLAITAPKDLPMFLSNKLEGDTFLLLIQSLKNNLIEKDPSLVYQHLLYLSKAERFKMMLTLISKGQKELIEQLFEDLSDTPNNHFTLEDIQALKRQYEL
2 | – | – | – | binds | binds | SPAG1(622-926)/PIH1D2(231-315) complex (complex, UniProt Q07617 622-926; Q8WWB5 231-315) chain 1: TFKALKEEGNQCVNDKNYKDALSKYSECLKINNKECAIYTNRALCYLKLCQFEEAKQDCDQALQLADGNVKAFYRRALAHKGLKNYQKSLIDLNKVILLDPSIIEAKMELEEVTRLLNLKDKTAPFNKEKERRKIEIQEVNEGKEEPGRPAGEVSMGCLASEKGGKSSRSPEDPEKLPIAKPNNAYEFGQIINALSTRKDKEACAHLLAITAPKDLPMFLSNKLEGDTFLLLIQSLKNNLIEKDPSLVYQHLLYLSKAERFKMMLTLISKGQKELIEQLFEDLSDTPNNHFTLEDIQALKRQYEL chain 2: KMPAYELKIVHDHSEKPLKIELKVELPGINSVSLCDLSVSEDDLLIEVSEKYRLHLNLPKLIDTEMTTAKFIKEKSTLIITMPLV
